Laboratory results published in publication PMC10213515.
Where a chain is given by its changes, count along the chain named. Results are given in words; binding and its absence hold for the method and conditions named. Some results given as binding are weak or reduced against the parent protein; the word gives no strength.

Protein sequences, listed by entry. Tags and fused reporters are not part of them.
UniProt P0A9A6: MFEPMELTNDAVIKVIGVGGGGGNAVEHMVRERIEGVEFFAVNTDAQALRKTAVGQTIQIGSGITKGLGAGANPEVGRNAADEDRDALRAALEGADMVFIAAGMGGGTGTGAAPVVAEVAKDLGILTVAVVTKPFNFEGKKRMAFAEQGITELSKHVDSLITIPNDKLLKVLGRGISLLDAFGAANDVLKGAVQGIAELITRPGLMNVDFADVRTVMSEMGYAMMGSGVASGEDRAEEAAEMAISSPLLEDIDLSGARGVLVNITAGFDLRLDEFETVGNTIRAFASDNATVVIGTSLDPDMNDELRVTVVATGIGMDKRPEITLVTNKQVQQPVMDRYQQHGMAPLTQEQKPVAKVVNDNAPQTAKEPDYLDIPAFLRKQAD

How the values were obtained:
Assay in all cases: co-sedimentation; phospholipid recruitment assay: FtsZ (3 uM) with GTP (2 mM) added to FtsA wild type or mutant (2.5 uM) pre-assembled with SUVs (250 ug/ml) and ATP (4 mM); 10 min at 30 C; vesicles collected at 21,000 x g for 15 min; SDS-PAGE, coomassie, densitometry; both purified
FtsA(Y375A) (E. coli) = molecular target: T1, FtsA(Y375A) (E. coli) (UniProt P0ABH0)
T1 sequence: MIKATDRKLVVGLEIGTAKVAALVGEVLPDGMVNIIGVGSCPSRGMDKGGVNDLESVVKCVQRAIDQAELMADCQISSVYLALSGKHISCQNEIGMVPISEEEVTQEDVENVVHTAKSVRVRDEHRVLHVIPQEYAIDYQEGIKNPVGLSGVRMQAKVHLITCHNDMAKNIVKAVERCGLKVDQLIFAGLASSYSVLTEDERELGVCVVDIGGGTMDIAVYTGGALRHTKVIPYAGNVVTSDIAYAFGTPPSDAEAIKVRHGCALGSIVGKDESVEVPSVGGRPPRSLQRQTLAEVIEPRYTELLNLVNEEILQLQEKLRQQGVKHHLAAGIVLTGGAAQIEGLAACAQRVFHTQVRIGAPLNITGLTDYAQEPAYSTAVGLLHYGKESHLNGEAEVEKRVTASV

FtsA(A188V) (E. coli) = molecular target: T2, FtsA(A188V) (E. coli) (UniProt P0ABH0)
T2 sequence: T1 sequence with A188V, A375Y

FtsA(E14R) (E. coli) = molecular target: T3, FtsA(E14R) (E. coli) (UniProt P0ABH0)
T3 sequence: T1 sequence with E14R, A375Y

FtsA(S84L) (E. coli) = molecular target: T4, FtsA(S84L) (E. coli) (UniProt P0ABH0)
T4 sequence: T1 sequence with S84L, A375Y

Measured: binding

FtsZ (from UniProt P0A9A6 1-383)
binds: all assays above
